{
  "source": "patent US10213482B2",
  "about": "“Methods of treating chronic inflammatory diseases” (Centre National de la Recherche Scientifique, priority 2014, dated 2019)",
  "key": {"Lewis rats": {"tested_on": "Lewis rats", "experiment": "Chronic-EAN rat model for CIDP, body weight and clinical score", "format": "in vivo", "settings": "vs untreated rats"}, "MRL/lpr B cells": {"tested_on": "MRL/lpr B cells", "experiment": "Cellular uptake of fluorescent P140 in MRL/lpr B cells (flow cytometry, confocal)", "format": "cell-based, mouse"}, "Balb/c mice": {"tested_on": "Balb/c mice", "experiment": "15-day ovalbumin-induced airway hypereosinophilia model, BAL cell counts", "format": "in vivo, mouse", "protocol": "The anti-inflammatory effect of the P140 phosphopeptide was evaluated when administered locally (intranasally) or systemically (intravenously) in a 15-day model of hypereosinophilic airway inflammation in mice.\nThe P140 phosphopeptide was solubilized in sterile water (Braun) and 10× concentrate sterile saline was added to adjust osmolarity to 300 mosm. Osmolarity was controlled with a micro osmometer (Loser, type 15) and validated (302 mosm).\nThe P140 phosphopeptide was used in vivo at the dose of 4 mg/kg by intranasal (i.n.) and intravenous (i.v.) routes. Control animals received equivalent volumes (1 ml/kg for i.n. and 2 ml/kg for i.v.) of saline (Table 6).\nNine-week-old male Balb/c mice were sensitized by intraperitoneal (i.p.) injections of a mixture containing 50 μg OVA (Sigma-Aldrich) and 2 mg alum (Sigma-Aldrich) in 0.1 ml saline. Mice were challenged by i.n. administration of 25 μl of OVA on day 5, then 25 μl of OVA and/or saline on day 12, 13 and 14. Mice were treated by i.v. injection (2 ml/kg) or i.n. administration (1 ml/kg) of P140 or solvent on day 9 (See FIG. 12).\nBAL was performed twenty-four hours after LPS challenge as described (Daubeuf, F. and Frossard, N. 2012. Performing Bronchoalveolar Lavage in the Mouse. Curr Protoc Mouse Biol 2:167-175). Mice were anaesthetized IP (Ketamine 150 mg/kg—Xylasine 10 mg/kg). Blood was collected from the heart, centrifuged at 10,000 g for 2 min and serum stored at −20° C. After semi-excision of the trachea, a plastic cannula was inserted, and airspace washed with 0.5 ml of 0.9% NaCl injected with a 1 ml syringe. This procedure was performed 10 times. The initial concentrated supernatant of the 2 first lavages (volume=2×0.5 ml administered, ˜0.5 ml recovered) was collected for cytokine measurements. The remaining BAL fluid was centrifuged (300 g for 5 min, 4° C.), and cell pellets pooled. The cell pellet was suspended in 500 μl of 0.9% NaCl and used for total cell counts evaluated on a Muse® Cell Analyser. Differential cell counts were assessed by flow cytometry (LSRII® cytometer, BD Bioscience). BAL cells were added with FCblock (0.5 μl, 553142, BD Bioscience) in a black microplate, incubated for 20 min at room temperature. Then, marker antibodies were added: CD11c-FITC (557400, BD bioscience), Gr-1-Pe-eFluor610 (61-5931-82, eBioscience), CD11b-APC-Cy7 (557657, BD bioscience), CD45-AlexaFluor700 (103128, BioLegend), CD3-BV605 (564009, BD bioscience), CD19-PE-Cy7 (552854, BD bioscience). Antibodies were incubated with BAL cells for 30 min at room temperature before DAPI (5 μl, BD bioscience) addition, and flow cytometry was performed immediately.\nData are presented as means±SEM. Differences between groups were tested for statistical significance using one-way ANOVA followed by Tukey's post-test. For statistical analysis, control groups 1, 2 and 3 were pooled."}, "[1]": {"settings": "P140 i.n. 4 mg/kg day 9, OVA challenge"}, "[2]": {"settings": "P140 i.n. 4 mg/kg day 9, saline challenge"}, "[3]": {"settings": "P140 i.v. 4 mg/kg day 9, OVA challenge"}, "[4]": {"settings": "P140 i.v. 4 mg/kg day 9, saline challenge"}},
  "note": "Several values for one entry are separate records, joined by “and”; a condition that tells them apart may be missing. Equal values may be shown once. Not every detail of the peptide structures is certain; ends, links or a residue may be inferred. Square brackets hold non-standard residues; d marks the D form. Peptide text beside a SMILES is read from it. pS = N[C@@H](COP(=O)(O)O)C(=O)O",
  "data": [
    {"molecule": "CC[C@H](C)[C@H](NC(=O)[C@H](Cc1ccccc1)NC(=O)[C@H](C)NC(=O)[C@H](Cc1ccc(O)cc1)NC(=O)CNC(=O)[C@H](CCCNC(=N)N)NC(=O)[C@@H]1CCCN1C(=O)[C@H](CCCCN)NC(=O)CNC(=O)[C@H](COP(=O)(O)O)NC(=O)[C@H](CCCNC(=N)N)NC(=O)[C@H](CCCCN)NC(=O)[C@H](CO)NC(=O)[C@H](Cc1ccc(O)cc1)NC(=O)[C@@H](NC(=O)[C@H](CCSC)NC(=O)[C@H](Cc1c[nH]cn1)NC(=O)[C@@H](NC(=O)[C@@H](N)CCCNC(=N)N)[C@@H](C)CC)C(C)C)C(=O)N[C@@H](CCC(=O)O)C(=O)N[C@@H](Cc1ccc(O)cc1)C(=O)O", "note": "[Compound P140] (H-RIHMVYSKR[pS]GKPRGYAFIEY-OH)", "values": [
      {"measurement": "Weight loss during disease course", "setting": "Lewis rats; 100 μg/rat i.p. at 5, 7, 9, 13 dpi and 3 times per week from 22 dpi", "value": "less important in the treated group"},
      {"measurement": "Chronicity of the disease", "setting": "Lewis rats; 100 μg/rat i.p.", "value": "seems abolish the chronicity"},
      {"measurement": "Maximal clinical scores", "setting": "Lewis rats; 100 μg/rat i.p.", "value": "decreased the maximal clinical scores"},
      {"measurement": "Onset of the disease", "setting": "Lewis rats; 100 μg/rat i.p.", "value": "delayed the onset of the disease"},
      {"measurement": "Entry into B cells (confocal microscopy)", "setting": "MRL/lpr B cells; P140 in trehalose compared with mannitol", "value": "enters B cells much less"},
      {"measurement": "Cellular uptake (flow cytometry)", "setting": "MRL/lpr B cells; fluorescent P140 in 10% trehalose compared with 5.4% mannitol", "value": "Much less cellular uptake"},
      {"measurement": "B cells in BAL, individual mice", "setting": "Balb/c mice; [1]", "value": "25 606 and 32 251 and 26 562 and 23 383 and 33 156 and 13 236"},
      {"measurement": "Eosinophils in BAL, individual mice", "setting": "Balb/c mice; [1]", "value": "490 306 and 497 948 and 737 671 and 839 841 and 792 249 and 615 171"},
      {"measurement": "Macrophages in BAL, individual mice", "setting": "Balb/c mice; [1]", "value": "271 110 and 322 340 and 247 391 and 538 954 and 436 210 and 286 509"},
      {"measurement": "Neutrophils in BAL, individual mice", "setting": "Balb/c mice; [1]", "value": "57 542 and 60 787 and 62 354 and 95 173 and 47 346 and 65 366"},
      {"measurement": "T cells in BAL, individual mice", "setting": "Balb/c mice; [1]", "value": "44 036 and 61 800 and 73 159 and 118 360 and 101 951 and 61 293"},
      {"measurement": "Total cells in BAL, individual mice", "setting": "Balb/c mice; [1]", "value": "862 995 and 942 875 and 1 120 576 and 1 592 328 and 1 377 755 and 1 028 339"},
      {"measurement": "B cells in BAL, individual mice", "setting": "Balb/c mice; [2]", "value": "112 and 242"},
      {"measurement": "Eosinophils in BAL, individual mice", "setting": "Balb/c mice; [2]", "value": "168 and 103"},
      {"measurement": "Macrophages in BAL, individual mice", "setting": "Balb/c mice; [2]", "value": "388 102 and 434 029"},
      {"measurement": "Neutrophils in BAL, individual mice", "setting": "Balb/c mice; [2]", "value": "56 and 61"},
      {"measurement": "T cells in BAL, individual mice", "setting": "Balb/c mice; [2]", "value": "4 135 and 4 180"},
      {"measurement": "Total cells in BAL, individual mice", "setting": "Balb/c mice; [2]", "value": "392 461 and 438 573"},
      {"measurement": "B cells in BAL, individual mice", "setting": "Balb/c mice; [3]", "value": "10 219 and 15 209 and 14 027 and 17 417 and 11 003 and 10 922"},
      {"measurement": "Eosinophils in BAL, individual mice", "setting": "Balb/c mice; [3]", "value": "425 928 and 272 763 and 473 105 and 470 027 and 327 186 and 429 469"},
      {"measurement": "Macrophages in BAL, individual mice", "setting": "Balb/c mice; [3]", "value": "439 265 and 442 055 and 244 523 and 293 070 and 342 134 and 379 565"},
      {"measurement": "Neutrophils in BAL, individual mice", "setting": "Balb/c mice; [3]", "value": "42 783 and 21 442 and 59 616 and 76 867 and 40 275 and 31 756"},
      {"measurement": "T cells in BAL, individual mice", "setting": "Balb/c mice; [3]", "value": "41 744 and 43 881 and 32 677 and 55 502 and 28 857 and 45 030"},
      {"measurement": "Total cells in BAL, individual mice", "setting": "Balb/c mice; [3]", "value": "949 720 and 780 142 and 809 921 and 895 467 and 738 452 and 885 821"},
      {"measurement": "B cells in BAL, individual mice", "setting": "Balb/c mice; [4]", "value": "70 and 266"},
      {"measurement": "Eosinophils in BAL, individual mice", "setting": "Balb/c mice; [4]", "value": "110 and 166"},
      {"measurement": "Macrophages in BAL, individual mice", "setting": "Balb/c mice; [4]", "value": "335 658 and 335 200"},
      {"measurement": "Neutrophils in BAL, individual mice", "setting": "Balb/c mice; [4]", "value": "259 and 133"},
      {"measurement": "T cells in BAL, individual mice", "setting": "Balb/c mice; [4]", "value": "5 311 and 4 790"},
      {"measurement": "Total cells in BAL, individual mice", "setting": "Balb/c mice; [4]", "value": "341 738 and 340 389"},
      {"measurement": "Inflammatory cell recruitment in BAL", "setting": "Balb/c mice; i.n. route 4 mg/kg, OVA challenge", "value": "little effect"},
      {"measurement": "Neutrophils recruitment in BAL, change vs OVA group", "setting": "Balb/c mice; i.v. 4 mg/kg, OVA challenge, not significant", "value": "−38", "unit": "%"},
      {"measurement": "Eosinophil recruitment in BAL, change vs OVA group", "setting": "Balb/c mice; i.v. 4 mg/kg, OVA challenge, p<0.001", "value": "−50", "unit": "%"},
      {"measurement": "T cells recruitment in BAL, change vs OVA group", "setting": "Balb/c mice; i.v. 4 mg/kg, OVA challenge, p<0.01", "value": "−66", "unit": "%"},
      {"measurement": "B cells recruitment in BAL, change vs OVA group", "setting": "Balb/c mice; i.v. 4 mg/kg, OVA challenge, p<0.05", "value": "−42", "unit": "%"}
    ]}
  ]
}
